According to the supplement of paper PMC7661543:
Differences between knockout arms are mostly noise.

System: BT-20
Assay: relative cell number vs DMSO control (72 h) (% of DMSO); higher = less growth inhibition (more cells)
Method: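 QMAP-Seq: a pool of 5 breast cancer cell lines (ZR-75-1, SKBR3, HCC-38, MDA-MB-231, BT-20), each carrying 12 doxycycline-inducible Cas9 sgRNA perturbations (11 knockouts plus non-targeting sgNT), was treated with compounds for 72 h at four 10-fold doses (10 nM-10 uM or 1 nM-1 uM range). Barcodes were amplified and sequenced, and cell number was interpolated from 293T spike-in standard curves. The result is expressed as % of the median of DMSO wells. Two biological replicates.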

N#Cc1ccc(C(c2ccc(C#N)cc2)n2cncn2)cc1 [Letrozole]
Details | relative cell number
sgRNA knockout: sgATF3, 1 nM | 107
sgRNA knockout: sgATF3, 10 nM | 108
sgRNA knockout: sgATF3, 100 nM | 94.2
sgRNA knockout: sgATF3, 1000 nM | 89.2
sgRNA knockout: sgATF4, 1 nM | 110
sgRNA knockout: sgATF4, 10 nM | 90
sgRNA knockout: sgATF4, 100 nM | 109
sgRNA knockout: sgATF4, 1000 nM | 94.2
sgRNA knockout: sgATF6, 1 nM | 94.8
sgRNA knockout: sgATF6, 10 nM | 79.1
sgRNA knockout: sgATF6, 100 nM | 118
sgRNA knockout: sgATF6, 1000 nM | 93.2
sgRNA knockout: sgATG7, 1 nM | 115
sgRNA knockout: sgATG7, 10 nM | 100
sgRNA knockout: sgATG7, 100 nM | 80
sgRNA knockout: sgATG7, 1000 nM | 98.3
sgRNA knockout: sgERN1, 1 nM | 87.1
sgRNA knockout: sgERN1, 10 nM | 93
sgRNA knockout: sgERN1, 100 nM | 101
sgRNA knockout: sgERN1, 1000 nM | 111
sgRNA knockout: sgHSF1, 1 nM | 99
sgRNA knockout: sgHSF1, 10 nM | 92.5
sgRNA knockout: sgHSF1, 100 nM | 94.1
sgRNA knockout: sgHSF1, 1000 nM | 97
sgRNA knockout: sgHSF2, 1 nM | 103
sgRNA knockout: sgHSF2, 10 nM | 90
sgRNA knockout: sgHSF2, 100 nM | 94.4
sgRNA knockout: sgHSF2, 1000 nM | 101
sgRNA knockout: sgKEAP1, 1 nM | 99.3
sgRNA knockout: sgKEAP1, 10 nM | 96.19
sgRNA knockout: sgKEAP1, 100 nM | 109
sgRNA knockout: sgKEAP1, 1000 nM | 96.8
sgRNA knockout: sgNFE2L2, 1 nM | 115
sgRNA knockout: sgNFE2L2, 10 nM | 88.5
sgRNA knockout: sgNFE2L2, 100 nM | 89.6
sgRNA knockout: sgNFE2L2, 1000 nM | 113
sgRNA knockout: sgSLC35F2, 1 nM | 90.2
sgRNA knockout: sgSLC35F2, 10 nM | 104
sgRNA knockout: sgSLC35F2, 100 nM | 92.36
sgRNA knockout: sgSLC35F2, 1000 nM | 103
sgRNA knockout: sgXBP1, 1 nM | 101
sgRNA knockout: sgXBP1, 10 nM | 107
sgRNA knockout: sgXBP1, 100 nM | 111
sgRNA knockout: sgXBP1, 1000 nM | 101

C[C@]1(c2nc3c(C(N)=O)cccc3[nH]2)CCCN1 [Veliparib]
Details | relative cell number
sgRNA knockout: sgATF3, 10 nM | 108
sgRNA knockout: sgATF3, 100 nM | 119
sgRNA knockout: sgATF3, 1000 nM | 92.9
sgRNA knockout: sgATF3, 10000 nM | 82.7
sgRNA knockout: sgATF4, 10 nM | 110
sgRNA knockout: sgATF4, 100 nM | 129.1
sgRNA knockout: sgATF4, 1000 nM | 110
sgRNA knockout: sgATF4, 10000 nM | 83.2
sgRNA knockout: sgATF6, 10 nM | 99.8
sgRNA knockout: sgATF6, 100 nM | 112
sgRNA knockout: sgATF6, 1000 nM | 95.7
sgRNA knockout: sgATF6, 10000 nM | 78.4
sgRNA knockout: sgATG7, 10 nM | 107
sgRNA knockout: sgATG7, 100 nM | 102
sgRNA knockout: sgATG7, 1000 nM | 91.1
sgRNA knockout: sgATG7, 10000 nM | 76.4
sgRNA knockout: sgERN1, 10 nM | 109
sgRNA knockout: sgERN1, 100 nM | 103
sgRNA knockout: sgERN1, 1000 nM | 102
sgRNA knockout: sgERN1, 10000 nM | 88.7
sgRNA knockout: sgHSF1, 10 nM | 98.1
sgRNA knockout: sgHSF1, 100 nM | 106
sgRNA knockout: sgHSF1, 1000 nM | 90.1
sgRNA knockout: sgHSF1, 10000 nM | 80.7
sgRNA knockout: sgHSF2, 10 nM | 96.5
sgRNA knockout: sgHSF2, 100 nM | 117
sgRNA knockout: sgHSF2, 1000 nM | 84.5
sgRNA knockout: sgHSF2, 10000 nM | 80.8
sgRNA knockout: sgKEAP1, 10 nM | 94.9
sgRNA knockout: sgKEAP1, 100 nM | 101
sgRNA knockout: sgKEAP1, 1000 nM | 88.2
sgRNA knockout: sgKEAP1, 10000 nM | 81.2
sgRNA knockout: sgNFE2L2, 10 nM | 113
sgRNA knockout: sgNFE2L2, 100 nM | 128
sgRNA knockout: sgNFE2L2, 1000 nM | 94.7
sgRNA knockout: sgNFE2L2, 10000 nM | 86.9
sgRNA knockout: sgSLC35F2, 10 nM | 112
sgRNA knockout: sgSLC35F2, 100 nM | 116
sgRNA knockout: sgSLC35F2, 1000 nM | 97.8
sgRNA knockout: sgSLC35F2, 10000 nM | 87.8
sgRNA knockout: sgXBP1, 10 nM | 107
sgRNA knockout: sgXBP1, 100 nM | 118
sgRNA knockout: sgXBP1, 1000 nM | 99.3
sgRNA knockout: sgXBP1, 10000 nM | 82.1

COc1cccc2c1C(=O)c1c(O)c3c(c(O)c1C2=O)C[C@@](O)(C(=O)CO)C[C@@H]3O[C@H]1C[C@H](N)[C@H](O)[C@H](C)O1 [Doxorubicin]
Details | relative cell number
sgRNA knockout: sgATF3, 10 nM | 98.5
sgRNA knockout: sgATF3, 100 nM | 50.05
sgRNA knockout: sgATF3, 1000 nM | 30.6
sgRNA knockout: sgATF3, 10000 nM | 19.4
sgRNA knockout: sgATF4, 10 nM | 86.1
sgRNA knockout: sgATF4, 100 nM | 59.4
sgRNA knockout: sgATF4, 1000 nM | 27.7
sgRNA knockout: sgATF4, 10000 nM | 18.2
sgRNA knockout: sgATF6, 10 nM | 86.8
sgRNA knockout: sgATF6, 100 nM | 57.7
sgRNA knockout: sgATF6, 1000 nM | 32.9
sgRNA knockout: sgATF6, 10000 nM | 20.7
sgRNA knockout: sgATG7, 10 nM | 84.6
sgRNA knockout: sgATG7, 100 nM | 62
sgRNA knockout: sgATG7, 1000 nM | 31.9
sgRNA knockout: sgATG7, 10000 nM | 21.1
sgRNA knockout: sgERN1, 10 nM | 84
sgRNA knockout: sgERN1, 100 nM | 50.1
sgRNA knockout: sgERN1, 1000 nM | 31.6
sgRNA knockout: sgERN1, 10000 nM | 15.2
sgRNA knockout: sgHSF1, 10 nM | 90.1
sgRNA knockout: sgHSF1, 100 nM | 44.1
sgRNA knockout: sgHSF1, 1000 nM | 27.6
sgRNA knockout: sgHSF1, 10000 nM | 21.9
sgRNA knockout: sgHSF2, 10 nM | 82.2
sgRNA knockout: sgHSF2, 100 nM | 47.1
sgRNA knockout: sgHSF2, 1000 nM | 33.1
sgRNA knockout: sgHSF2, 10000 nM | 18
sgRNA knockout: sgKEAP1, 10 nM | 88.8
sgRNA knockout: sgKEAP1, 100 nM | 56.1
sgRNA knockout: sgKEAP1, 1000 nM | 26.9
sgRNA knockout: sgKEAP1, 10000 nM | 20.9
sgRNA knockout: sgNFE2L2, 10 nM | 84
sgRNA knockout: sgNFE2L2, 100 nM | 47.48
sgRNA knockout: sgNFE2L2, 1000 nM | 27.4
sgRNA knockout: sgNFE2L2, 10000 nM | 21.4
sgRNA knockout: sgSLC35F2, 10 nM | 91.8
sgRNA knockout: sgSLC35F2, 100 nM | 51.5
sgRNA knockout: sgSLC35F2, 1000 nM | 34.9
sgRNA knockout: sgSLC35F2, 10000 nM | 19.89
sgRNA knockout: sgXBP1, 10 nM | 80.8
sgRNA knockout: sgXBP1, 100 nM | 52.3
sgRNA knockout: sgXBP1, 1000 nM | 29.2
sgRNA knockout: sgXBP1, 10000 nM | 23.9
